According to PubChem BioAssay AID304 (DTP/NCI, 2004):
The list is a part of this screen's results and no random one: its compounds were picked by chemical class. Other doses and runs of a compound may be missing. T/C: endpoint of the treated group in % of that of the vehicle group. Where survival is the endpoint, the PubChem record calls one and a half times the control and up active, and a quarter to a half above the control has no call in these data; cut-offs in other NCI protocols can differ. Some entries show no survivor count and are marked so; the dose need not have been tolerated. Schedules are NCI's codes, read here as Q, the interval in days (D) or hours (H), X, the number of doses. Some entries were tested several times; the results are listed from low to high.

Test system: Lymphosarcoma Mecca ip in C3AKF1 mice, survival T/C%
Test: NCI In Vivo Anticancer Drug Screen. Data for tumor model Lymphosarcoma Mecca (intraperitoneal) in C3AKF1 (CHKRF1) mice
Settings: T/C endpoint: survival time, mean or median, schedule: Q01DX010 (ip), vehicle: saline, higher T/C = longer survival
Procedure: The antitumor activity of compounds was measured in mice bearing transplantable tumors. Survival or tumor size were measured and the results are expressed as the measurement made in the treated group (T) divided by the measurement made in the vehicle treated control group (C). The tumor model used in this assay is Lymphosarcoma Mecca (intraperitoneal) in C3AKF1 (CHKRF1) mice

With `ClCCNCCCl` the T/C (dose: 18.8 mg/kg/injection) was 116 [survivor count not shown] and 233 % of control [survivor count not shown].
In the case of `NC1CCCCC1.NP(=O)(O)N(CCCl)CCCl`, the T/C (dose: 15.6 mg/kg/injection) is reported as 141 [survivor count not shown] and 155 % of control [survivor count not shown], the T/C (dose: 31.3 mg/kg/injection) is reported as 155 [survivor count not shown] and 160 % of control [survivor count not shown] and the T/C (dose: 62.5 mg/kg/injection) is reported as 103 [survivor count not shown] and 150 % of control [survivor count not shown].
With `NC(Cc1cccc(N(CCCl)CCCl)c1)C(=O)O` (stereo unspecified) the T/C (dose: 0.63 mg/kg/injection) was 120 [survivor count not shown] and 140 % of control [survivor count not shown], the T/C (dose: 1.25 mg/kg/injection) was 136 [survivor count not shown] and 150 % of control [survivor count not shown] and the T/C (dose: 2.5 mg/kg/injection) was 154 [survivor count not shown] and 185 % of control [survivor count not shown]. For the same molecule, the T/C (dose: 5.0 mg/kg/injection) was 110 [survivor count not shown] and 127 % of control [survivor count not shown].
In the case of `ClCCN(CCCl)Cc1nc2ccccc2[nH]1`, the T/C (dose: 1.25 mg/kg/injection) is reported as 95 % of control [survivor count not shown], the T/C (dose: 2.5 mg/kg/injection) is reported as 130 [survivor count not shown] and 135 % of control [survivor count not shown] and the T/C (dose: 5.0 mg/kg/injection) is reported as 135 [survivor count not shown] and 165 % of control [survivor count not shown]. For the same molecule, the T/C (dose: 10.0 mg/kg/injection) was 105 [survivor count not shown] and 130 % of control [survivor count not shown].
With `CC(C(=O)O)N(CCCl)CCCl` (stereo unspecified) the T/C (dose: 0.5 mg/kg/injection) was 128 % of control [survivor count not shown], the T/C (dose: 1.0 mg/kg/injection) was 133 % of control [survivor count not shown] and the T/C (dose: 2.0 mg/kg/injection) was 157 % of control [survivor count not shown]. For the same molecule, the T/C (dose: 4.0 mg/kg/injection) was 104 % of control [survivor count not shown].
